The values below come from article PMC12063704.

Sequences of proteins named here, by UniProt entry; tags and fusion partners are left off.
UniProt Q13206: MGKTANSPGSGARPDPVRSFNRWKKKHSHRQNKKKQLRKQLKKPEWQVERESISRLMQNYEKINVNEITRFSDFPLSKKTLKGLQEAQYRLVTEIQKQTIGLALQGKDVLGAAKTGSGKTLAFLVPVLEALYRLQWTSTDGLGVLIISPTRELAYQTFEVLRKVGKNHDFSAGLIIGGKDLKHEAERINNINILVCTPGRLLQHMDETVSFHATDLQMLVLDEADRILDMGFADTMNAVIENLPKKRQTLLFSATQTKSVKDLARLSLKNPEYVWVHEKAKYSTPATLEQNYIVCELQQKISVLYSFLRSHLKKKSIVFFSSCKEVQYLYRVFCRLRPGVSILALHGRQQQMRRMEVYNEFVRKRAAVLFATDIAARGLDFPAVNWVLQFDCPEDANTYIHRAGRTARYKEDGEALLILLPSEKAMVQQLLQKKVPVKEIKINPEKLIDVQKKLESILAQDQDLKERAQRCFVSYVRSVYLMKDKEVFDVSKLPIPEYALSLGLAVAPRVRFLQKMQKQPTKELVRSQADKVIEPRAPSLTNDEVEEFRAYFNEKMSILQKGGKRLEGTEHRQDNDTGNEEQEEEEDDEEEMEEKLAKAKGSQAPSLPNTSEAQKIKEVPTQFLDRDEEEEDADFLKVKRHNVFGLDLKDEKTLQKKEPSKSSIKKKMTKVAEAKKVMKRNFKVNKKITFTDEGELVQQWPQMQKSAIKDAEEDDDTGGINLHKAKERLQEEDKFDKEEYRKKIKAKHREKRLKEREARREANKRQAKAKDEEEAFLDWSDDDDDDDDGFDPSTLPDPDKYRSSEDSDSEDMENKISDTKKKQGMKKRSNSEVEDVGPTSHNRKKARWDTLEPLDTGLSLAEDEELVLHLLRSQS

These are yes or no findings as the source states them, for the method shown. Binding seen in cells or lysates may run through a third protein. Some results given as binding are weak or reduced against the parent protein; the word gives no strength.

This assay addresses DEAD-box ATPase 10 (DDX10) (human (endogenous in SCC15)) (UniProt Q13206). Briefly: co-IP; endogenous proteins in SCC15 cell lysate; IP/Co-IP kit, protein A/G magnetic beads preincubated with the primary antibody, 4 °C; washed with lysis buffer, eluted in SDS loading buffer, detected by Western blot; which antibody precipitated is not stated.

B1: Rab27b (protein, UniProt O00194 1-218)
chain: MTDGDYDYLIKLLALGDSGVGKTTFLYRYTDNKFNPKFITTVGIDFREKRVVYNAQGPNGSSGKAFKVHLQLWDTAGQERFRSLTTAFFRDAMGFLLMFDLTSQQSFLNVRNWMSQLQANAYCENPDIVLIGNKADLPDQREVNERQARELADKYGIPYFETSAATGQNVEKAVETLLDLIMKRMEQCVEKTQIPDTVNGGNSGNLDGEKPPEKKCIC
Regarding B1, the binding entry was “binds”.
